This passage reports binding results from paper PMC9818419.

By UniProt entry, the sequences of proteins in these tests, tags left out. Residues count along the entry.
UniProt A2ARV4, residues 26-4660: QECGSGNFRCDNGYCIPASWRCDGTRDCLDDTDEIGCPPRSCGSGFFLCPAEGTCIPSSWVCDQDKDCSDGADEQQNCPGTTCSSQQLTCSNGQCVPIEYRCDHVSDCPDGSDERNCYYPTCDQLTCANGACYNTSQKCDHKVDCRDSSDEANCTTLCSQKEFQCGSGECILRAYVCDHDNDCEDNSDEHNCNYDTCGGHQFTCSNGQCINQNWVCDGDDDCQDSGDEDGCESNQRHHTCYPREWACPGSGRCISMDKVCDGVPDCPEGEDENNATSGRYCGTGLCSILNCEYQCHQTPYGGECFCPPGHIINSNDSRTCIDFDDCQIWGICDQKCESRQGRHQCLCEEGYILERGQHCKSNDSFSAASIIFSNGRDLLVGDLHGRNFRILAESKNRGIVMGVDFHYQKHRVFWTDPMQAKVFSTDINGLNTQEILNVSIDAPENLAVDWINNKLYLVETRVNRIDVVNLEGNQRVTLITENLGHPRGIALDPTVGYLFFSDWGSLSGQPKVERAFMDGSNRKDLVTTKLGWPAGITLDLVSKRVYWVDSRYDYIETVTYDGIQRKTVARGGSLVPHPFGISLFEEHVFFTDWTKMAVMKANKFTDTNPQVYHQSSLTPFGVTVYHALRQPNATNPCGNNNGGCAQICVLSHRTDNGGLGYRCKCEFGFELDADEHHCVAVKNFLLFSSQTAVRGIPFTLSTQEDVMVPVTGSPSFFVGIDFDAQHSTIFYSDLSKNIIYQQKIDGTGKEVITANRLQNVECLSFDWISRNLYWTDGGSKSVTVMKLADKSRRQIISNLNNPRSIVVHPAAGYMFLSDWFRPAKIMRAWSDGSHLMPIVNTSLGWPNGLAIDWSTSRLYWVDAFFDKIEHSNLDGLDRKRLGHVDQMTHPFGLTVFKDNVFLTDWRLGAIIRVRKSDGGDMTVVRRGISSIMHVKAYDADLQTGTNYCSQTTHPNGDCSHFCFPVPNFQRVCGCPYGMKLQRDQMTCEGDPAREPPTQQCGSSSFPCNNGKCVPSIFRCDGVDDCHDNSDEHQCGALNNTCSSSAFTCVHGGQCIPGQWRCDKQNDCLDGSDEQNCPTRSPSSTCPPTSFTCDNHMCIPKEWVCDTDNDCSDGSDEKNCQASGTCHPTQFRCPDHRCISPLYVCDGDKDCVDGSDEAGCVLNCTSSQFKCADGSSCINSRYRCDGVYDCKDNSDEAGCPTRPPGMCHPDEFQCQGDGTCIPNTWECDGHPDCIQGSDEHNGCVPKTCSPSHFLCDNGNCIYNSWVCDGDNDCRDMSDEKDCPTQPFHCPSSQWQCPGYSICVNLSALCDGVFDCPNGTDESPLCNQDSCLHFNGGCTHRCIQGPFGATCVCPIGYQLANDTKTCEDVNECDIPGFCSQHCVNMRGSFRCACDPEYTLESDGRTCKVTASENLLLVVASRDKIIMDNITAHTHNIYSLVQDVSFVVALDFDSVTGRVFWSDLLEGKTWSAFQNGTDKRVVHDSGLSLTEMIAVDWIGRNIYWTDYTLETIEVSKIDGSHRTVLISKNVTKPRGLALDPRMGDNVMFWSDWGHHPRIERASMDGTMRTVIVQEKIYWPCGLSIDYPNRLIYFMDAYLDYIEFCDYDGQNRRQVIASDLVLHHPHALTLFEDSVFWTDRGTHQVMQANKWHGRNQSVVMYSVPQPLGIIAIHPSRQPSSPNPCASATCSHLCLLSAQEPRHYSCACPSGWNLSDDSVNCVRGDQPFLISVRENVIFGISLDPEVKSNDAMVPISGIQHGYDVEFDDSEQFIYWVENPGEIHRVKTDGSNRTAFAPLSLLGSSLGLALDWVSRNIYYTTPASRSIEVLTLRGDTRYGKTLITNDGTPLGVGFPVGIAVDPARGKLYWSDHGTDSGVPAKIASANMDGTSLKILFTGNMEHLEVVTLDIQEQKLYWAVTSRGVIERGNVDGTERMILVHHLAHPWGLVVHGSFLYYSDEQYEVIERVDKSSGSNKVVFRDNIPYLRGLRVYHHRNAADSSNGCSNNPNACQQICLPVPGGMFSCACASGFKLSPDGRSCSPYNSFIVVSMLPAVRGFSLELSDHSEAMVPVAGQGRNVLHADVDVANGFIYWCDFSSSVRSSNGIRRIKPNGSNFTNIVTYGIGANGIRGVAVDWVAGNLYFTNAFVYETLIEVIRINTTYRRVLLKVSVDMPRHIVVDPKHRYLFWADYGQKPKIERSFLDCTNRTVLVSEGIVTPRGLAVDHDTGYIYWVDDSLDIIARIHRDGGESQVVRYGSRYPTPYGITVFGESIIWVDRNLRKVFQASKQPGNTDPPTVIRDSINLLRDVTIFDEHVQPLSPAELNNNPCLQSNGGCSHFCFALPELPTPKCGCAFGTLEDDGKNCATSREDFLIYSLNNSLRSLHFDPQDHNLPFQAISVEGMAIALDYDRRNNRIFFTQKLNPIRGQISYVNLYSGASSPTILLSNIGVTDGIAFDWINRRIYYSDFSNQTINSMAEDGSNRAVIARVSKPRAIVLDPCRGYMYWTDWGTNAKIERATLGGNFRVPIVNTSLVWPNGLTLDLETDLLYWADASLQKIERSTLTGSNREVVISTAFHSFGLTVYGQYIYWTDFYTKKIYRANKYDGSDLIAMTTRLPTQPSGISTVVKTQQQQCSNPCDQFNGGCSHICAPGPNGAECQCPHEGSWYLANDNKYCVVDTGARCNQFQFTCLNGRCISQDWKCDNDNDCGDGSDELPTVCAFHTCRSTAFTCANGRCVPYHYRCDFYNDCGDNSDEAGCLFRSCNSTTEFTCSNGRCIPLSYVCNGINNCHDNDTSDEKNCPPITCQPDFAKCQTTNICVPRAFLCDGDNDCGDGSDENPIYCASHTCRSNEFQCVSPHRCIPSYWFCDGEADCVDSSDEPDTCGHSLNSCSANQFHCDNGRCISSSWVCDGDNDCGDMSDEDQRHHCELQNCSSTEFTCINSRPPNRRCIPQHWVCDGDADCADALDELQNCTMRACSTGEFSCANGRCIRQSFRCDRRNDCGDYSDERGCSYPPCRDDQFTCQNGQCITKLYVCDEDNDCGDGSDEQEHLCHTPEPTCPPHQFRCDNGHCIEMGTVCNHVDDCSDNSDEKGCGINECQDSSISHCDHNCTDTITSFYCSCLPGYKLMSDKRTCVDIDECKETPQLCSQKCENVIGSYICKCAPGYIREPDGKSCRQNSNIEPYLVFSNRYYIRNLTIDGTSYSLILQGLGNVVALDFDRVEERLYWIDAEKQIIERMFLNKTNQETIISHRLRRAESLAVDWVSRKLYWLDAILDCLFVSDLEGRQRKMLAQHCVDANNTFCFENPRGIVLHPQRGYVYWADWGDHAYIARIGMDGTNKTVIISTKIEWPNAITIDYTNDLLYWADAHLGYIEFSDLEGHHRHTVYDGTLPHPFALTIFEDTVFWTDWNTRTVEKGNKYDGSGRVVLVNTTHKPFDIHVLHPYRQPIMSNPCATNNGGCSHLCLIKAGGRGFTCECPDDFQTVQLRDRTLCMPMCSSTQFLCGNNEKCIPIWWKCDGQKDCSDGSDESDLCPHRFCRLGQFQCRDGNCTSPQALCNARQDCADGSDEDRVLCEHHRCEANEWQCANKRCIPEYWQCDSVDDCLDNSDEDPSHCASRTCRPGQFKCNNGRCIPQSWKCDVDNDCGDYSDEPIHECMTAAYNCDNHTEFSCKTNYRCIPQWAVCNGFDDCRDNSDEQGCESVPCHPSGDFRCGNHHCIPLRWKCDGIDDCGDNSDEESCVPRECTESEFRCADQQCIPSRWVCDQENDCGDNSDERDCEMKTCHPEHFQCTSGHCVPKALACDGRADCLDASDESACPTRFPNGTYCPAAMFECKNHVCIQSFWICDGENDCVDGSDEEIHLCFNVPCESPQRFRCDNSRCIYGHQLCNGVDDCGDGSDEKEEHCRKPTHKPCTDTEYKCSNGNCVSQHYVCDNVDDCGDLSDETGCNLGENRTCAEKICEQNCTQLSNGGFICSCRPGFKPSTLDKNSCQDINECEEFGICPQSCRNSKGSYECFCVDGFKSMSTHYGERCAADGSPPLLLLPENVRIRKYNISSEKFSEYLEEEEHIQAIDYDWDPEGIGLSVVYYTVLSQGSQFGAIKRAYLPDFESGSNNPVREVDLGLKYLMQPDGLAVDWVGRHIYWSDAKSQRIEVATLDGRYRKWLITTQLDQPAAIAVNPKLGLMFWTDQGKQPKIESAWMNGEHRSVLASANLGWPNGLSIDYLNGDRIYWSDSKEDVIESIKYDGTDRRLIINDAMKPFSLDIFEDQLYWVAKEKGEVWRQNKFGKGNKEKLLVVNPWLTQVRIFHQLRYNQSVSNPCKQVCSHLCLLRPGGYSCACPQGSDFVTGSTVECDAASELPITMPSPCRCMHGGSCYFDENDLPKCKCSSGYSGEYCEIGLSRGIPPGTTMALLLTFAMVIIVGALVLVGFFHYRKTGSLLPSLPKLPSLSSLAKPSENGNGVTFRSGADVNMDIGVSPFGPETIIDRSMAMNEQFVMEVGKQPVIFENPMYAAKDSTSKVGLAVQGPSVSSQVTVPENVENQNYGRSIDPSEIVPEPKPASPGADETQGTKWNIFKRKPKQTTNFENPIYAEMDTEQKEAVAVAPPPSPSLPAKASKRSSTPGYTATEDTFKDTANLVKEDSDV

Results are given in words; binding and its absence hold for the method and conditions named. In cells and extracts the contact can be indirect. Some entries that bind do so weakly or less than the wild type.

The target of this experiment is megalin (endogenous, mouse kidney) (mouse (endogenous in kidney)) (UniProt A2ARV4). In words: co-IP; mouse kidney homogenate; guinea pig anti-megalin antibody and protein A/G magnetic beads, 4 °C; blots of megalin and FcRn.

B1: FcRn (endogenous, mouse kidney) (receptor, UniProt Q61559 22-365)
chain: SETRPPLMYHLTAVSNPSTGLPSFWATGWLGPQQYLTYNSLRQEADPCGAWMWENQVSWYWEKETTDLKSKEQLFLEALKTLEKILNGTYTLQGLLGCELASDNSSVPTAVFALNGEEFMKFNPRIGNWTGEWPETEIVANLWMKQPDAARKESEFLLNSCPERLLGHLERGRRNLEWKEPPSMRLKARPGNSGSSVLTCAAFSFYPPELKFRFLRNGLASGSGNCSTGPNGDGSFHAWSLLEVKRGDEHHYQCQVEHEGLAQPLTVDLDSSARSSVPVVGIVLGLLLVVVAIAGGVLLWGRMRSGLPAPWLSLSGDDSGDLLPGGNLPPEAEPQGANAFPATS
As for B1, the binding result is recorded as “binds”.
